Measurements reported in patent US7704961B2, “Avermectins and avermectin monosacharides substituted in the 4′-and 4″ position having pesticidal properties” (Merial Limited, priority 2003, dated 2010).
Some of these results come from one statement about several compounds together.

Tests used:
Assay type in all cases: in vivo
Tetranychus urticae = experiment: Activity against Tetranychus urticae (Example B7, sprayed bean plants); conditions: 12.5 ppm of active compound, spray on young bean plants 1 day after populating with mixed population, 25° C., 6 days
Spodoptera littoralis = experiment: Activity against Spodoptera littoralis (Example B1, sprayed soya bean plants); conditions: 12.5 ppm of active compound, spray on young soya bean plants, caterpillars of the first stage, 3 days later
Plutella xylostella = experiment: Activity against Plutella xylostella caterpillars (Example B4, sprayed cabbage plants); conditions: 12.5 ppm of active compound, spray on young cabbage plants, caterpillars of the first stage, after 3 days
[1] = test system: Frankliniella occidentalis; experiment: Activity against Frankliniella occidentalis (Example B5, sprayed bean leaf discs); conditions: 12.5 ppm of active compound, sprayed bean leaf discs on agar, mixed population, after 10 days
Diabrotica balteata = experiment: Activity against Diabrotica balteata (Example B6, sprayed maize seedlings); conditions: 12.5 ppm of active compound, spray on maize seedlings, larvae of the second stage, after 6 days
Heliothis virescens = experiment: Activity against Heliothis virescens (Example B3, eggs on filter paper); conditions: 12.5 ppm of active compound, 0.8 ml on filter paper with 0- to 24-hour-old eggs, after 6 days

4′-(S)—O-[(Methylamino)thiocarbonyl]avermectin B1 monosaccharide [Compound 5.2]
reduction in the pest population (Tetranychus urticae): more than 80%
reduction in the pest population (Spodoptera littoralis): more than 80%

CCC(C)C1OC2(C=CC1C)CC1CC(CC=C(C)C(OC3CC(OC)C(OC4CC(OC)C(OC(=O)NC)C(C)O4)C(C)O3)C(C)C=CC=C3COC4C(O)C(C)=CC(C(=O)O1)C34O)O2 (stereo not shown) [Compound 1.1]
reduction in the pest population (Plutella xylostella): more than 80%
reduction in the pest population (Tetranychus urticae): more than 80%
reduction in the pest population (Spodoptera littoralis): more than 80%
reduction in the pest population [1]: more than 80%
reduction in the pest population (Diabrotica balteata): more than 80%

C=CCNC(=O)OC1C(C)OC(OC2C(C)OC(OC3C(C)=CCC4CC(CC5(C=CC(C)C(C(C)CC)O5)O4)OC(=O)C4C=C(C)C(O)C5OCC(=CC=CC3C)C45O)CC2OC)CC1OC [Compound 1.17, 4″-(S)—O-[(allylamino)carbonyl]avermectin B1]
reduction in the pest population (Tetranychus urticae): more than 80%

CCC(C)C1OC2(C=CC1C)CC1CC(CC=C(C)C(OC3CC(OC)C(OC4CC(OC)C(OC(=O)N5CCCC5)C(C)O4)C(C)O3)C(C)C=CC=C3COC4C(O)C(C)=CC(C(=O)O1)C34O)O2 [Compound 1.38, 4″-(S)—O-[(pyrrolidino)carbonyl)]-avermectin B1]
reduction in the pest population (Tetranychus urticae): more than 80%

CCC(C)C1OC2(C=CC1C)CC1CC(CC=C(C)C(OC3CC(OC)C(OC4CC(OC)C(OC(=O)NN)C(C)O4)C(C)O3)C(C)C=CC=C3COC4C(O)C(C)=CC(C(=O)O1)C34O)O2 [Compound 1.45, 4″-(S)—O-[(hydrazino)carbonyl]avermectin B1]
reduction in the pest population (Diabrotica balteata): more than 80%

CCC(C)C1OC2(C=CC1C)CC1CC(CC=C(C)C(OC3CC(OC)C(OC(=O)NCc4ccccc4)C(C)O3)C(C)C=CC=C3COC4C(O)C(C)=CC(C(=O)O1)C34O)O2 [Compound 3.6, 4′-(S)—O-[(Benzylamino)carbonyl]avermectin B1 monosaccharide]
reduction in the pest population (Tetranychus urticae): more than 80%

CCC(C)C1OC2(C=CC1C)CC1CC(CC=C(C)C(OC3CC(OC)C(OC(=O)NC4CCCCC4)C(C)O3)C(C)C=CC=C3COC4C(O)C(C)=CC(C(=O)O1)C34O)O2 [Compound 3.7, 4′-(S)—O-[(Cyclohexylamino)carbonyl]avermectin B1 monosaccharide]
reduction in the pest population (Tetranychus urticae): more than 80%

CCC(C)C1OC2(C=CC1C)CC1CC(CC=C(C)C(OC3CC(OC)C(OC(=O)NC)C(C)O3)C(C)C=CC=C3COC4C(O)C(C)=CC(C(=O)O1)C34O)O2 (stereo not shown) [Compound 4.2]
reduction in the pest population (Heliothis virescens): more than 80%
